Not every detail of the peptide structures is certain; ends, links or a residue may be inferred.
These molecules were tested against T1, renin (Homo sapiens, UniProt P00797) (assay: in vitro renin inhibitory activity, standard radioimmunoassay for angiotensin I). Settings: molar concentration causing 50% inhibition of renin activity; renin incubated two hours at 37° with substrate angiotensinogen; product angiotensin I by radioimmunoassay.
T1 sequence (P00797 67-406): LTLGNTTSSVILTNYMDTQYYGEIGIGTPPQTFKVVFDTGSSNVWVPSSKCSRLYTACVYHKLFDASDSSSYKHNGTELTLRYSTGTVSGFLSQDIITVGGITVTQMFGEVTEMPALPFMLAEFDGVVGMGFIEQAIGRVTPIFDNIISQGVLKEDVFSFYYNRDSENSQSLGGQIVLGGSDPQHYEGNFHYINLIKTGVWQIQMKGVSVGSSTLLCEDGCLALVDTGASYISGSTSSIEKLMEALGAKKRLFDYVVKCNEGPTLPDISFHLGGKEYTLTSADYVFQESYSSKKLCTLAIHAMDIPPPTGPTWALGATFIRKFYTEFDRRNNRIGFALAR
Type: biochemical
Protocol: The effectiveness of the aforementioned compounds is determined by a test for in vitro renin inhibitory activity. This activity is determined by a standard radioimmunoassay for angiotensin I. In this assay the enzyme, renin, incubated for two hours at 37° in the presence of a substrate, angiotensinogen, generates the product, angiotensin I. Test compounds are added to the incubation mixture.

Row | Structure (SMILES) | IC50 [µM]
1 | CC(C)C[C@H](NC(=O)[C@H](C)NC(=O)C[C@H](O)[C@H](CC(C)C)NC(=O)[C@H](Cc1c[nH]cn1)NC[C@H](Cc1ccccc1)NC(=O)OC(C)(C)C)[C@@H](O)CC(=O)NCc1ccccc1 [Example 63, BOC-PHE[CH2 NH]HIS-STA-ALA-STA-NHCH2 Ph] | 21
2 | CC(C)C[C@H](NC(=O)C(Cc1ccccc1)[S+]([O-])C[C@H](Cc1ccccc1)NC(=O)OC(C)(C)C)[C@@H](O)CC(=O)N[C@@H](C)C(=O)N[C@@H](CC(C)C)[C@@H](O)CC(=O)NCc1ccccc1 (some centres unmarked) [Example 42, 10,18-dihydroxy-14-methyl-9,17-bis(2-methylpropyl)-7,12,15-20-tetraoxo-22-phenyl-3,6-bis(phenylmethyl)-5-thia-2,8,13,16,21-pentaazadocosanoic acid-1,1-dimethyl ester-5-oxide] | 5.6
3 | CC(C)C[C@H](NC(=O)C[C@H](O)[C@H](CC(C)C)NC(=O)[C@H](Cc1c[nH]cn1)N(O)C[C@H](Cc1ccccc1)NC(=O)OC(C)(C)C)C(=O)NCc1ccccc1 [Example 69, 2,5,8,13,16-Pentaazaheptadecanoic acid, 5,10-dihydroxy-6-(1H-imidazol-4-ylmethyl)-9,14-bis(2-methylpropyl)-7,12,15-trioxo-17-phenyl-3-(phenylmethyl)-, 1,1-dimethylethyl ester, [3S-(3R*,6R*,9R*,10R*,14R*)]-] | 6.5
4 | CC(C)C[C@H](NC(=O)C(Cc1ccccc1)S(=O)(=O)C[C@H](Cc1ccccc1)NC(=O)OC(C)(C)C)[C@@H](O)CC(=O)N[C@@H](C)C(=O)N[C@@H](CC(C)C)[C@@H](O)CC(=O)NCc1ccccc1 (some centres unmarked) [Example 41, 10,18-dihydroxy-14-methyl-9,17-bis(2-methylpropyl)-7,12,15,20-tetraoxo-22-phenyl-3,6-bis(2-methylpropyl)-7,12,15,20-tetraoxo-22-phenyl-3,6-bis(phenylmethyl)-5-thia-2,8,13,15,21-pentaazadocosanoic acid-1,1-dimethylethyl ester-5,5-dioxide] | 18
5 | CC(C)C[C@H](NC(=O)C[C@H](O)[C@H](CC(C)C)NC(=O)C(Cc1ccccc1)[S+]([O-])C[C@H](Cc1ccccc1)NC(=O)OC(C)(C)C)C(=O)NCc1ccccc1 (some centres unmarked) [Example 43, 10-hydroxy-9,14-bis(2-methylpropyl)-7,12,15-trioxo-17-phenyl-3,6-bis(phenylmethyl)-5-thia-2,8,13,16-tetraazaheptadecanoic acid-1,1-dimethyl ethyl ester-5-oxide] | 5.4
